Results from PubChem BioAssay AID540256 (National Center for Advancing Translational Sciences (NCATS), 2011).
The campaign covered roughly 300,000 compounds. About 3,700 (1.2%) were called active. Inconclusive results, whose numbers are uncertain, are shown with a selection of clear calls. The call rests on the fitted dose curve; tested in HEK293 cells. A potency beside an inconclusive call is a rough fit, not a confirmed value.

assay: qHTS for Inhibitors of binding or entry into cells for Lassa Virus; conditions: Lassa virus pseudotype entry inhibition, cell reporter; activity change, negative = inhibition: at 37.9 µM (top of the series) unless noted; further: nearly all actives have a fitted effect of over 50% in size
On the % scale 0 is the no-effect control and ±100 the full control effect; potency means the concentration at half of the fitted maximal effect.

Compound	Potency	activity change, negative = inhibition
O=C(Cc1cccs1)N/N=C/C=C\c1ccco1	inconclusive: 8.91 µM [inhibitor, partial curve, poor fit]	–
CCCCC(CC)Cn1c(O)c(/C=C2\C=NN=C2c2ccccc2)sc1=S (stereo unspecified)	inconclusive: 10 µM [inhibitor, partial curve]	–
Cc1ccc(-n2c(C)cc(C(=O)COC(=O)c3ccc[nH]c3=O)c2C)cc1C	inconclusive: 1.46 µM [activator, partial curve, poor fit]	–
CSc1cccc(NC(=S)Nc2cc(C)ccc2C)c1	inconclusive: 1 µM [inhibitor, partial curve, poor fit]	–
O=C(CCCN1C(=O)/C(=C/c2cccs2)SC1=S)Nc1cccc(O)c1	inconclusive: 35.5 µM [inhibitor, single point]	–
O=c1[nH]c(=O)n(Cc2ccco2)c(O)c1C=NCc1ccc2c(c1)OCO2	–	inactive: -9.41%
COc1ccccc1C(CNC(=O)c1ccc(NS(=O)(=O)c2ccc3c(c2)OCCO3)cc1)N(C)C (stereo unspecified)	–	inactive: 14.9%
COC(=O)C1=CN(c2ccc(F)c(F)c2)C=C(C(=O)OC)C1c1ccc([N+](=O)[O-])cc1	inconclusive: 1.41 µM [inhibitor, full curve]	–
O=C(Nc1ccc(F)cc1F)C1CCCN(c2ncnc3c2nc2n3CCCCC2)C1 (stereo unspecified)	inconclusive: 2.82 µM [inhibitor, full curve, poor fit]	–
CCN(CC)C(=S)SSC(=S)N(CC)CC	active: 2.91 µM	–
CCN(c1ccccc1)S(=O)(=O)c1ccc(C(=O)Nc2ncccc2O)cc1	–	inactive: -26.6%
N=C1CCCN1CC(=O)c1ccc(Br)cc1	–	inactive: 24.3%
NCCc1nnc(SCc2ccc(Cl)cc2)o1	–	inactive: 17.5% [at 46.1 µM]
CCCCN(C)CCNC(=O)c1cn(C)c(=O)c2c1c1ccccc1n2C	–	inactive: -9.46% [at 46.1 µM]
N#Cc1c(N)nc2c3c(sc(=N)c2c1N)NC(=O)CC3c1ccccc1 (stereo unspecified)	–	inactive: 3.61%
COc1nc(-c2cccs2)cc(-c2ccc(C)cc2)c1C#N	inconclusive: 3.66 µM [inhibitor, full curve]	–
O=C(N1CCOCC1)N1CCN(c2ccc(F)cc2)CC1	–	inactive: 19.6%
O=C(O)/C=C\c1ccccc1Oc1cccc(Cl)c1	inconclusive: 14.1 µM [activator, partial curve, poor fit]	–
Cc1cccc(NC(=O)C(=O)NCC(c2cccnc2)N2CCOCC2)c1 (stereo unspecified)	–	inactive: -10.2% [at 46.1 µM]
CCCOc1ccc(C2c3c(-c4ccccc4O)n[nH]c3C(=O)N2Cc2ccncc2)cc1OCC (stereo unspecified)	inconclusive: 3.16 µM [inhibitor, partial curve, poor fit]	–
O=C(NCCC1CCCCN1S(=O)(=O)c1ccccc1)C(=O)NC1CCCC1 (stereo unspecified)	inconclusive: 0.708 µM [activator, single point]	–

Retrieved by compound from the entries so far, 2 records:
Compound	Potency	activity change, negative = inhibition
O=C(CCCN1C(=O)/C(=C/c2cccs2)SC1=S)Nc1cccc(O)c1	inconclusive: 35.5 µM [inhibitor, single point]	–
O=C(Cc1cccs1)N/N=C/C=C\c1ccco1	inconclusive: 8.91 µM [inhibitor, partial curve, poor fit]	–
